From PubChem BioAssay AID493014 (National Center for Advancing Translational Sciences (NCATS), 2011)
Some of the results follow. Shown are side measurements of this screen, not its main read-out; they come without a call. Compounds called inactive in the main read-out are mostly missing here. Potencies come from curve fits of mixed quality, noted in brackets.

Experiment: qHTS Assay to Find Inhibitors of Chronic Active B-Cell Receptor Signaling
Settings: ABC-DLBCL IkBa-CBG/CBR reporter, luminescence ratio (green luciferase fused to IkBa over red control in TMD8 lymphoma cells), 4 h
From the text: NIH Molecular Libraries Probe Production Network [MLPCN] NIH Chemical Genomics Center [NCGC] MLPCN Grant: 1 R03 DA031086-01A1 PI Name: Dr. R. Eric Davis NCGC Assay Overview: Diffuse large B-cell lymphoma (DLBCL) is the most common category of non-Hodgkin lymphoma, with ~20,000 new cases per year in the United States. DLBCL should be regarded as a collection of different neoplasms. Microarray gene expression analysis has defined two principal types of DLBCL, named for their similarity to normal B cell stages or activation states: a germinal center B-cell (GCB) type, and an activated B-cell (ABC) type. In ABC-DLBCL, a constitutive high-level activity of the NF-kappaB family of transcription factors has been observed (1) and NF-kappaB target genes are more highly expressed in ABC primary tumors than in GCB tumors. Functional studies have shown a constitutive high-level activity of the IkappaB (inhibitor of kappa-B) kinase (IKK) complex. […] Further analysis of DLBCL primary tumors for NF-kappaB target gene expression imply that although CARD11 is required for constitutive IKK activity in all ABC-DLBCL lines, mutations in CARD11 may be the root cause of IKK activation only in lines or tumors with such mutations. In other words, CARD11 mutations may explain NF-kappaB activation in only 10% of ABC-DLBCL cases. […] This process has been termed 'chronic active BCR signaling' (CABS). The goal of this screen is to find small-molecule inhibitors of the CABS pathway found in ABC-DLBCL lines using a cell-based assay that measures IkappaBalpa stability, which has already been extensively validated in the OCI-Ly3 line (PubChem AID:445; REF: 4). […] The assay uses green (CBG68) and red (CBR) emitting beetle luciferases [Chroma-GloTM developed by Promega Corp.] where the green luciferase is fused to IkappaBalpha and the red luciferase is present in its native state. Both luciferase genes are stably present in the TMD8 human ABC DLBCL cell line, but their expression is under the control of tetracycline-inducible promoters. Following the addition of doxycycline to induce expression of the luciferases, the green luminescence in control cultures rises only slowly because the CBG fusion partner IkappaBalpha is targeted by IKK activity for rapid degradation. In contrast, green luminescence rises rapidly in the presence of proteasome inhibitors or IKK inhibitors. The rise in red luminescence of CBR is not affected by proteasome or IKK inhibitors, and serves as normalization for cell number and nonspecific effects. Compounds were screened as a concentration-titration series that ranged from 46 uM to 3 nM.
NCGC Assay Protocol Summary: Cells were seeded in 1536-well plates at 5000 cells/4uL in IMDM medium containing 0.5% FBS, w/o phenol red, 1% penicillin/streptomycin. Then, 23 nL of compounds or DMSO were delivered to each well using a pin tool. One uL 20ng/ml doxycycline was then dispensed into white solid 1536-well plates and the plates were incubated at 37C/5% C02 in a cell incubator for 4 hrs. Then 4 uL luminescent substrate mix (in-house prepared: 150 mM Tris-Cl, pH 7.6, 3 mM MgCl2, 1% Triton X-100, 5 mM DTT, 0.2 mM CoA, 0.15 mM ATP, 5 mM D-luciferin, final concentrations) was added to each well. The plate was incubated at r.t. for 10-15 min. The plates were measured on a ViewLux plate reader for green luminescence (540/20 nm filter) and red luminescence (618/8 nm filter). The green and red luminescent signals were corrected for red and green luminescence filter overlap using previously determined filter calibration constants (determined using the procedure outlined in the Promega Technical Manual; REF 4). The %Activity was determined from the ratio of corrected green/red luminescent values. MG132 were used as control. […] Red luminescent %Activity was normalized to the difference between red luminesence in basal cells (0%Activity) and zero luminescence (-100% Activity). […]

[1] = measured here: CBR red luminescence, cell number
[2] = measured here: IkBa-CBG green luminescence

SMILES	AC50 [1]	AC50 [2]
CC1=C(C(=O)OC2CCCCC2)C(c2ccc(F)cc2)NC(=O)N1 (configuration not stated)	35.5 µM [falling, single point]	
CN(C)CCCNc1oc(-c2cccc(Cl)c2)nc1C#N	7.31 µM [rising, partial curve, poor fit]	
CC1CCCN(C(=S)NC2CCCC2)C1 (configuration not stated)	22.4 µM [rising, single point]	
Cc1cc(C)cc(Nc2nc3c([nH]2)c(=O)n(C)c(=O)n3C)c1	0.501 µM [falling, full curve]	
CCc1nc(N2CCN(C(=S)NCCCOC)CC2)c2c3c(sc2n1)CCCC3	14.1 µM [falling, single point]	
CCCCOC(=O)c1ccc(NC(=O)C(=O)NCc2ccco2)cc1	2 µM [falling, partial curve, poor fit]	
CC(C)Cn1c(N)c(C(=O)COC(=O)c2ccc(O)cc2)c(=O)n(C)c1=O	11.2 µM [falling, single point]	
CCN(CC)c1ccc(/C=C/c2nc3ccccc3s2)cc1	1.78 µM [falling, full curve, poor fit]	
O=C(Nc1ccc(Br)cc1Cl)c1cnccn1	0.651 µM [rising, full curve, poor fit]	
COC(=O)C1=C(C)NC(=O)/C1=C\c1cc(C)n(-c2ccc(F)cc2)c1C	35.5 µM [falling, single point]	
COC(=O)c1[nH]c2cc(OC)ccc2c1NC(=O)CCN1CCN(Cc2ccc3c(c2)OCO3)CC1	32.6 µM [rising, partial curve, poor fit]	
N/C(=N\OC(=O)c1ccccc1Cl)c1ccccn1	15.8 µM [falling, single point]	
COc1ccccc1NC(=S)NC(=O)Cc1ccc(Cl)cc1	3.98 µM [falling, partial curve, poor fit]	
Cc1oc(-c2ccccc2)nc1C(=O)O		1.78 µM [rising, full curve, poor fit]
Cc1cccc(C)c1NC(=O)/C(C#N)=C/c1ccc(-c2ccc(C(=O)O)cc2)o1	10 µM [falling, partial curve, poor fit]	
Cc1cc(N)c2cc(NC(=O)/C=C/c3ccccc3Cl)ccc2n1	17.8 µM [rising, single point]	
Cc1cc2ncn(C(=O)N3CCOCC3)c2cc1C	7.31 µM [rising, partial curve, poor fit]	
C/C(=N\NC(=O)c1cc(C)oc1C)c1ccc(C)c([N+](=O)[O-])c1	1.84 µM [falling, full curve]	
O=C(/C=C/c1ccc(S(=O)(=O)N2CCOCC2)cc1)N1CCN(c2ccc(F)cc2)CC1	22.4 µM [falling, partial curve, poor fit]	
CCOC(=O)c1nnn(-c2nonc2N)c1-c1ccc(OC)cc1	0.517 µM [rising, full curve, poor fit]	
Cc1ccc(CSc2nnc(-c3ccccc3N)c(=O)[nH]2)cc1	25.9 µM [falling, single point]	
COc1ccc(OC)c(C(=O)COC(=O)C2CC3CCCC(C2)C3=O)c1 (configuration not stated)	13 µM [rising, partial curve]	

SMILES	AC50 [1]	AC50 [2]
CCOC(=O)c1sc(=NC(=O)c2ccc(Br)cc2)n(C)c1C	7.08 µM [falling, full curve]	
Cc1ccc2c(c1)nnn2C1CCN(C(=O)C23CC4CC(CC(C4)C2)C3)CC1	3.66 µM [rising, full curve, poor fit]	
Cc1cc(C)nc(Nc2n[nH]c(-c3ccccc3C)n2)n1	1.41 µM [falling, full curve]	
CC(=O)[C@@H]1[C@@H]2C(=O)N(c3ccccc3F)C(=O)[C@@H]2[C@H]2c3ccccc3C=NN12	17.8 µM [falling, partial curve]	
Cc1onc(-c2c(Cl)cccc2Cl)c1C(=O)N/N=C(\N)COc1ccc(Cl)cc1	14.6 µM [falling, partial curve, poor fit]	
COc1ccc(NC(=O)c2cccnc2SC)cc1OC	10 µM [falling, partial curve]	
CCOCCc1nnc(NC(=O)c2cc(OC)c(OC)c(OC)c2)s1	6.51 µM [rising, partial curve, poor fit]	
Cc1ccc(C(=O)NCC(=O)N2CCN(c3ncccn3)CC2)s1	20.6 µM [rising, single point]	
COc1ccc(-n2c(SCCC(=O)O)nnc2-c2ccncc2)cc1	0.461 µM [falling, partial curve, poor fit]	
O=C(Oc1ccc(Cl)c2cccnc12)c1ccco1	6.51 µM [falling, single point]	25.9 µM [falling, single point]
O=C(COC(=O)C1(c2ccc(F)cc2)CCCC1)NCc1ccco1	22.4 µM [falling, partial curve, poor fit]	
O=C(Nc1ccccc1)c1ccccc1O	14.1 µM [falling, partial curve]	
CCCCOC(=O)n1c(=S)oc2cc(Cl)ccc21	11.2 µM [falling, partial curve]	
CC(=O)NS(=O)(=O)c1ccc(NC(=O)/C=C/c2ccc(C)o2)cc1	11.2 µM [falling, partial curve, poor fit]	
COc1cc(NC(=S)NCCc2c[nH]c3ccccc23)c(OC)cc1Cl	29.1 µM [falling, single point]	
Clc1ccc(SCc2nc3ccccc3[nH]2)cc1	8.91 µM [falling, partial curve, poor fit]	
COC(=O)c1ccc(NC(=O)c2ccccc2N(C)S(=O)(=O)c2ccccc2)cc1	0.146 µM [falling, full curve, poor fit]	
CC1(c2ccccc2)NC(=O)N(CC(=O)Nc2ccc(S(N)(=O)=O)cc2)C1=O (configuration not stated)	35.5 µM [rising, single point]	
Cc1cc(N/N=C/c2ccccc2O)c2ccccc2n1	11.2 µM [falling, partial curve]	
COC(=O)C1C(O)=C(C=NCC(C)N=CC2=C(O)C(C(=O)OC)C(C)(C)CC2=O)C(=O)CC1(C)C (configuration not stated)	15.8 µM [rising, single point]	
C/C(=N\NC(=O)c1ccccc1OCCOc1ccccc1)c1ccccc1F	10.3 µM [falling, partial curve]	
O=C(CSc1nc2nc(-c3cccs3)cc(C(F)(F)F)c2c(=O)[nH]1)Nc1ccc(F)c(F)c1	12.6 µM [falling, partial curve]	

SMILES	AC50 [1]	AC50 [2]
COc1ccc(Nc2cc(C)c3ccc(O)cc3n2)cc1	10 µM [rising, partial curve, poor fit]	
COc1ccc2nc(NC(=O)CS(=O)(=O)c3ccc(C)cc3)sc2c1	35.5 µM [falling, single point]	
Cc1ccc(NC(=O)N2CCCC2C(=O)NCC2CCCO2)cc1 (configuration not stated)	0.562 µM [rising, full curve, poor fit]	
Cc1ccc(N(C(=O)c2nsc(Cl)c2Cl)C(C(=O)NC2CCCC2)c2ccc(O)cc2)cc1C (configuration not stated)	14.6 µM [falling, partial curve]	
CCCCOC(=O)c1ccc(NC(=O)C(=O)NCC2CCCO2)cc1 (configuration not stated)	8.91 µM [falling, partial curve, poor fit]	
NC(=S)n1[nH]c(-c2ccccc2)c(N=Nc2ccccc2C(=O)N2CCOCC2)c1=O	6.31 µM [falling, full curve, poor fit]	1.12 µM [rising, full curve, poor fit]
NNC(=O)c1oc2nc(-c3cccs3)cc(-c3ccco3)c2c1N	20 µM [falling, single point]	
Cc1ccc(S(=O)(=O)N2CCOCC2)cc1NC(=O)COC(=O)c1ccc(OCc2c(C)noc2C)cc1		23.1 µM [falling, single point]
O=C(N/N=C/c1ccccn1)c1ccc(Br)cc1	23.1 µM [rising, single point]	18.4 µM [falling, single point]
Nc1ccc(/C=C/C(=O)c2ccco2)cc1	16.4 µM [falling, single point]	
COc1cc(C2N(c3cccc(Cl)c3)C(=O)C3CCCN32)cc(OC)c1OC (configuration not stated)	0.92 µM [rising, full curve, poor fit]	
CC(=O)N(C)c1ccc(OCC(O)COc2ccc(N(C)C(C)=O)cc2)cc1	20.6 µM [rising, single point]	
CC(C)(C)c1ccccc1OCC(=O)Nc1ccccc1C(=O)NCc1cccnc1	35.5 µM [falling, single point]	
CCCN1C(=O)c2ccc(C(=O)Nc3ccccc3C(=O)O)cc2C1=O	7.08 µM [falling, partial curve]	
COc1ccccc1N1CCN(c2ccnc3cc(Cl)ccc23)CC1		15.8 µM [falling, single point]
COc1cc(OC)cc(C(=O)Nc2ccn(C)n2)c1	14.6 µM [falling, partial curve, poor fit]	
O=C(NCc1ccccn1)c1coc(=O)c(Br)c1	23.1 µM [rising, single point]	
COc1ccc(C(=O)NCC2OCCc3ccccc32)c(O)c1 (configuration not stated)	0.731 µM [rising, full curve]	
CC1CCN(C(=O)c2ccc(COc3ccccc3Cl)o2)CC1	35.5 µM [falling, single point]	
Cc1cc(C(=O)COc2ncnc3sccc23)c(C)n1C1CC1	2 µM [rising, partial curve]	

An excerpt of these results, as comma-separated lines.
SMILES,AC50 [1],AC50 [2]
COc1ccc(Nc2cc(C)c3ccc(O)cc3n2)cc1,"10 µM [rising, partial curve, poor fit]",
COc1ccc2nc(NC(=O)CS(=O)(=O)c3ccc(C)cc3)sc2c1,"35.5 µM [falling, single point]",
NC(=S)n1[nH]c(-c2ccccc2)c(N=Nc2ccccc2C(=O)N2CCOCC2)c1=O,"6.31 µM [falling, full curve, poor fit]","1.12 µM [rising, full curve, poor fit]"
NNC(=O)c1oc2nc(-c3cccs3)cc(-c3ccco3)c2c1N,"20 µM [falling, single point]",
O=C(N/N=C/c1ccccn1)c1ccc(Br)cc1,"23.1 µM [rising, single point]","18.4 µM [falling, single point]"
COc1cc(C2N(c3cccc(Cl)c3)C(=O)C3CCCN32)cc(OC)c1OC (configuration not stated),"0.92 µM [rising, full curve, poor fit]",
CC(=O)N(C)c1ccc(OCC(O)COc2ccc(N(C)C(C)=O)cc2)cc1,"20.6 µM [rising, single point]",
CC(C)(C)c1ccccc1OCC(=O)Nc1ccccc1C(=O)NCc1cccnc1,"35.5 µM [falling, single point]",
CCCN1C(=O)c2ccc(C(=O)Nc3ccccc3C(=O)O)cc2C1=O,"7.08 µM [falling, partial curve]",
COc1ccccc1N1CCN(c2ccnc3cc(Cl)ccc23)CC1,,"15.8 µM [falling, single point]"
COc1cc(OC)cc(C(=O)Nc2ccn(C)n2)c1,"14.6 µM [falling, partial curve, poor fit]",
COc1ccc(C(=O)NCC2OCCc3ccccc32)c(O)c1 (configuration not stated),"0.731 µM [rising, full curve]",
Cc1cc(C(=O)COc2ncnc3sccc23)c(C)n1C1CC1,"2 µM [rising, partial curve]",
